Data published in patent publication US20200131266A1 (STCUBE, published 2020).
These are yes or no findings as the source states them, for the method shown. Some binding calls cover weakened binding; strength is not graded here. Tags and fused reporters may be left off the sequences shown.

Legend:
[1] = molecular target: T1, human IgG1-Fc-tagged mouse BTN1A1-ECD (dimer) (mouse; human) (UniProt Q62556); experiment: SPR (Biacore), STC1029 captured on the chip, mouse BTN1A1-ECD-Fc injected at 2-64 nM, control flow cell subtracted
T1 sequence: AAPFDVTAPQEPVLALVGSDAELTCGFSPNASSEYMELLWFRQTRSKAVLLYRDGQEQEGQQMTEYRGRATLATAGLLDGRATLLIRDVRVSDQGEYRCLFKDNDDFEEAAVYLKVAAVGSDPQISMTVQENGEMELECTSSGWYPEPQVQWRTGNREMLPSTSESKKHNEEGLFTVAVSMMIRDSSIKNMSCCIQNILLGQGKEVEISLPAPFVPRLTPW

[2] = molecular target: T1, human IgG1-Fc-tagged mouse BTN1A1-ECD (dimer) (mouse; human); experiment: SPR (Biacore)
[3] = molecular target: T1, human IgG1-Fc-tagged mouse BTN1A1-ECD (dimer) (mouse; human); experiment: SPR (BIAcore), antibody immobilized on a Protein A-CM5 chip
[4] = molecular target: T1, human IgG1-Fc-tagged mouse BTN1A1-ECD (dimer) (mouse; human); experiment: SPR (Biacore), STC1011 captured on the chip, mouse BTN1A1-ECD-Fc injected at 2-64 nM, control flow cell subtracted

Measured: binding

B1: STC1029 (antibody, V domains shown)
VH: EVQLQQSGPELVKPGASVKISCKASGYSFTGYFMNWVKQSHGKSLEWIGRINPYNGDTFYNQKFKDKATLTVDTSSSTAHMELRSLTSEESAVYYCARWTTVINFDYWGQGTTLTVSS
VL: SIVMTQTPKFLLVSAGDRVTITCKASQSVSYDVVWYQQKPGQSPKLLMYYVSNRYTGVPDRFTGSGYGTDFTFTISTVQAEDLAVYFCQQDYSSPPTFGGGTKLEIK
binds: [1] | [2] | [3]

B2: STC1011 (antibody, V domains shown)
VH: EVQLQQSGPELVKPGDSVKMSCKASGYTFTDYYMDWVKQSHGKSLEWIGYISPNNGGTKYNQKFKGKATLTVDKSSSTAYMELHSLTSEDSAVYYCAREPDLLYYFDYWGQGTTLTVSS
VL: DIVMSQSPSSLAVSVGEKVIMSCKSSQSLLYFSNQKNYLAWYQQKPGQSPRLLIYWASTRESGVPDRFTGSGSGTDFTLTISSVKAEDLAVYYCQQYYSYPWTFGGGTKLEIK
binds: [2] | [4] | [3]
